Values from PubChem BioAssay AID1259308 (NCATS, 2017)
In all, the deposit lists about 59,000 reagents; this is a random part of them. Of all reagents, about 1,510 (2.6%) are marked active. 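Calls use total luciferase alone and ignore viability, so some active siRNAs may act by altering cell number.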 A number with no mark means an inactive call. The numbers tell different reagents against one gene apart. No sequences are given here.

- Purpose: 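Genes whose loss raises luciferase production in HEK293 cells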 (primary screen)
- Cell system: human HEK293 embryonic kidney cells stably expressing firefly luciferase (HEK-CMV-Luc2-Hygro)
- Reagents: single siRNA against human genes, 0.8 pmol siRNA per well
- Duration: 72 h
- Read-out: 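Reporter luminescence and viable-cell signal on separate replicate plates, given as percent of non-targeting control and median/MAD z-scores, plus per-cell luciferase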
- Direction: total luciferase, z-score and total luciferase, % of control: higher = more reporter protein produced; luciferase per cell, z-score: higher = more reporter output per viable cell; viable cells, % of control: higher = more viable cells
- Call rule: 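Active when the median/MAD z-score for overall luciferase is greater than 3; a gene was taken forward for validation with new siRNAs if at least two of its three siRNAs passed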
- Meaning of the calls: active = raised luciferase; inactive = no rise

gene | reagent | total luciferase, z-score | total luciferase, % of control | luciferase per cell, z-score | viable cells, % of control
H1-7 | 1 | 0.252 | 86.9 | 0.422 | 86.9
H1-7 | 2 | -0.401 | 73.9 | -0.323 | 89.9
H1-7 | 3 | 1.89 | 119 | 1.63 | 86.9
GPR25 | 1 | -1.07 | 60.5 | -1.29 | 95.1
GPR25 | 2 | 1.52 | 112 | 1.7 | 80
GPR25 | 3 | 0.0623 | 83.1 | 0.11 | 90.2
KCNA6 | 1 | -0.917 | 63.7 | -1.03 | 93.4
KCNA6 | 2 | 1.46 | 111 | 0.803 | 100
KCNA6 | 3 | -0.281 | 76.3 | 1.35 | 59.8
RGS10 | 1 | 2.18 | 125 | 0.865 | 111
RGS10 | 2 | 0.357 | 89 | 0.347 | 90.7
RGS10 | 3 | -0.401 | 73.9 | 0.0364 | 81.8
ZNF22-AS1 | 1 | -1.49 | 52.3 | -1.41 | 84.8
ZNF22-AS1 | 2 | -0.591 | 70.1 | -0.045 | 79.3
ZNF22-AS1 | 3 | -0.0804 | 80.3 | 0.373 | 81.3
AMFR | 1 | -0.344 | 75 | -0.79 | 103
AMFR | 2 | -0.169 | 78.5 | -0.0596 | 89.1
AMFR | 3 | -0.156 | 78.8 | -0.553 | 102
KCNQ5 | 1 | 0.652 | 94.8 | -0.000586 | 106
KCNQ5 | 2 | 0.885 | 99.5 | 1.53 | 74.4
KCNQ5 | 3 | 1.07 | 103 | 0.714 | 95.6
UCN | 1 | -0.349 | 74.9 | 0.0132 | 83.5
UCN | 2 | -0.843 | 65.1 | 0.447 | 64.7
UCN | 3 | -1.27 | 56.7 | -1.33 | 89.9
ETF1 | 1 | -2.36 | 35 | -2.49 | 75.4
ETF1 | 2 | -2.65 | 29.1 | -3.57 | 83.4
ETF1 | 3 | -2.28 | 36.5 | -1.88 | 67
PPP1R16A | 1 | 0.436 | 90.6 | 0.238 | 95
PPP1R16A | 2 | -0.147 | 79 | -0.116 | 91
PPP1R16A | 3 | -0.937 | 63.2 | -0.912 | 89.9
CANT1 | 1 | 1.21 | 106 | 0.869 | 94.2
CANT1 | 2 | -0.156 | 78.8 | -0.784 | 108
CANT1 | 3 | 0.0757 | 83.4 | -0.239 | 99.2
TACR1 | 1 | -0.659 | 68.8 | -0.163 | 80.2
TACR1 | 2 | -2.17 | 38.8 | -0.864 | 54.4
TACR1 | 3 | -0.948 | 63 | -0.77 | 86.3
CALCA | 1 | 0.118 | 84.2 | 0.64 | 79.5
CALCA | 2 | 0.733 | 96.5 | -0.135 | 112
CALCA | 3 | 1.93 | 120 | 0.634 | 114
GUF1 | 1 | -0.514 | 71.7 | -0.19 | 84.2
GUF1 | 2 | 0.702 | 95.8 | 0.487 | 94.2
GUF1 | 3 | -0.476 | 72.4 | 0.506 | 70.8
DNAAF2 | 1 | 2.99 | 141 | 2.05 | 92
DNAAF2 | 2 | 0.616 | 94.1 | 0.401 | 94.7
DNAAF2 | 3 | -0.89 | 64.2 | -1.95 | 120
ATP6V0C | 1 | -0.761 | 66.7 | 1.33 | 52.6
ATP6V0C | 2 | -1.11 | 59.9 | -0.813 | 82.9
ATP6V0C | 3 | -0.376 | 74.4 | -0.499 | 94.8
ZNF705A | 1 | 0.0623 | 83.1 | 0.219 | 87.7
ZNF705A | 2 | 0.153 | 84.9 | -0.213 | 100
ZNF705A | 3 | 2.59 | 133 | 2.4 | 79.3
CD86 | 1 | -0.431 | 73.3 | -0.221 | 86.8
CD86 | 2 | -1.11 | 59.9 | -1.63 | 103
CD86 | 3 | 1.73 | 116 | 2.07 | 75.4
RBP7 | 1 | -0.315 | 75.6 | -0.115 | 87.1
RBP7 | 2 | 0.889 | 99.6 | 0.287 | 103
RBP7 | 3 | -1.81 | 45.8 | -1.4 | 74

8 consecutive reagents from above, for reference:
gene | reagent | total luciferase, z-score | total luciferase, % of control | luciferase per cell, z-score | viable cells, % of control
ZNF705A | 1 | 0.0623 | 83.1 | 0.219 | 87.7
ZNF705A | 2 | 0.153 | 84.9 | -0.213 | 100
ZNF705A | 3 | 2.59 | 133 | 2.4 | 79.3
CD86 | 1 | -0.431 | 73.3 | -0.221 | 86.8
CD86 | 2 | -1.11 | 59.9 | -1.63 | 103
CD86 | 3 | 1.73 | 116 | 2.07 | 75.4
RBP7 | 1 | -0.315 | 75.6 | -0.115 | 87.1
RBP7 | 2 | 0.889 | 99.6 | 0.287 | 103
